According to patent publication US20160060326A1:
Numbering of substitutions follows the chain as printed. These are yes or no findings as the source states them, for the method shown. Some results given as binding are weak or reduced against the parent protein; the word gives no strength.

Chains of the proteins cited; added tags and fusions are not shown. Residues count along the entry.
UniProt P13794, residues 25-350: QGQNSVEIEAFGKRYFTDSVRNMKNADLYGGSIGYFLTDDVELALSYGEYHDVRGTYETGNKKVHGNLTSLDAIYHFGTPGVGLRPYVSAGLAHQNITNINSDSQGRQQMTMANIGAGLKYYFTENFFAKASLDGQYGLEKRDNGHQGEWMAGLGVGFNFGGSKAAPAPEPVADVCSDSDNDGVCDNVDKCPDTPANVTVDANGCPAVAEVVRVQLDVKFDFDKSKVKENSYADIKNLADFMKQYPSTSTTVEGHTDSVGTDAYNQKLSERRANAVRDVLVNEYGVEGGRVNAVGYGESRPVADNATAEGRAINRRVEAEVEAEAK

B1: OFA1 (antibody, V domains shown)
VH: EVQLVQSGAEMKKPGSSVKVSCKASGDTFSNYNFNWVRQAPGQGLEWMGGITPIFGAAQYAQKFQDRVTIIADESTSTAYMELRSLRSDDTAVYYCAGGWAGFCSSASCYRFDYWGQGTTVTVSS
VL: SYELTQPPSVSAAPGQKVTISCSGSSSNIGNYYVSWYQQLPGTAPKLLIYDNDKRPSGIPDRFSASKSGTSASLAITGLQAEDEADYYCQSYDRTLSGGILGTGTKLTVL
B2: OFC7 (antibody, V domains shown)
VH: QVQLVVSGDEVKKPGASVKVSCKASGYTFTSYDINWVRQAPGQGLEWLGWMSPNSGNTDYAEKFQGRVTMTRDTSITTAYMELSSLASEDTAVYYCARGVAAGLDYWGQGTLVTVSS
VL: LPVLTQSASVSGSPGQSITISCTGTSTDVDYSNYVSWYQHHPGKAPKLMIYDVSRRPSGVSNRFSGSKSGNTASLTISGLQAEDEADYYCSSYTSGTTLVFGGGTKVTVL
B3: OFG5 (antibody, V domains shown)
VH: QVQLVQSGAEVKKPGASVKVSCKASGYTFTGYYMHWVRQAPGQGLEWMGWINPNSGGTNYAQKFQGRVTITRDTSASTAYMELSSLRSEDTAVYYCATLGGAAAGLNTDYWGQGTLVTVSS
VL: SYELMQPASVSGSPGQSITISCTGTSSDVGGYNYVSWYQQHPGKAPKLMIYDVSNRPSGVSNRFSGSKSGNTASLTISGLQAEDEADYYCSSYTSSSTRVFGTGTKVTVL
B4: OFH10 (antibody, V domains shown)
VH: QVQLVESGGGLIQPGGSLRLSCAASGFTVSSNYMSWVRQAPGKGLEWVSVIYSGGTKYYADSVKGRFTISRDNSKNTLYLQMNSLRAEDTAVYFCARGDDAFDIWGQGTMVTVSS
VL: B3 VL with S1Q, Y2S, E3V, M5T, S97N, R99I, T103S
B5: OIE12 (antibody, V domains shown)
VH: EVQLLESGGGLVQPGRSLRLSCTASGFTFGDYAMSWFRQAPGKGLEWVSVIYSGGSTYYADSVKGRFTISRHNSKNTLYLQMNSLRAEDTAVYYCARGYGIDYWGQGTLVTVSS
VL: QSVVTQPPSVSAAPGQRVTISCSGSSSNIENNYVSWYQQLPGTAPKLLIYDNNKRPSGIPDRFSGSKSGTSATLGITGLQTGDEADYYCGTWDSSLSTEVFGGGTKLTVL
B6: OIE9 (antibody, V domains shown)
VH: QVQLQQWGAGLLKPSETLSLTCAVYGGPFRSYYWSWIRQPPGKGLEWIGEINHSGSTNYNPSLKSRVTISVDRSKNQFSLKLTSVTAADTAVYYCAREGDHEAFDIWGQGTMVTVSS
VL: B5 VL with S2P, V4L, R17K, E30G, T98S, E99L
B7: OIF10 (antibody, V domains shown)
VH: QVQLVQSGGGLVQPGGSLRLSCAASGFTVNSNHMSWVRQAPGKGLEWVSLIYNGDNTYYADSVKGRFTISRDNPKNTLYLQMNRLRDEDTAVYYCARDWGYNVGDWGQGTLVTVSS
VL: QSVLTQPASVSGSPGQSITISCTGTSSDVGGYNYVSWYQQHPGKAPKLMIYDVSNRPSGVSNRFSGSKSGNTASLTISGLQAEDEADYYCSSYAGSNNPYVFGTGTKVTVL
B8: OIF6 (antibody, V domains shown)
VH: QVQLQQWGAGLLKPSETLSLTCAVYGGSFSGYYWSWIRQTPGKGLEWIGEINHSGSTNYNPSLKSRVTISADTSRNQFSLRLSSVTAADTAVYYCARGDSGFGVVSSYYFDQWGQGTLVTVSS
VL: SYELMQPPSESVAPGQTAKITCGGENIGSKSVHWYQQKSGQAPLLVVYDDRDRPSGIPERFFGSNSGDTASLTISGVEAGDEADYYCQVWDSRNDRVVFGGGTKLTVL
B9: OIF9 (antibody, V domains shown)
VH: QVQLVESGAEVKKPGASVKVSCKASGYTFTSYGISWVRQAPGQGLEWMGWISAYNGNTNYAQKLQGRVTMTTDTSTSTAYMELRSLRSDDTAVYYCARELGLDAFDIWGQGTMVTVSS
VL: B5 VL with R17K, E30G, T98A, E99V
B10: OIG1 (antibody, V domains shown)
VH: EVQLVESGAEVKKPGSSVKVSCKASGYTFTNYDINWVRQATGQGLEWMGWMNPNSGNTGYAQKFQGRVTMTRDTSISTAYMELSSLKSEDTAVYYCARDDYYDFDSWGQGTLVTVSS
VL: QSVVTQPPSVSAAPGQKVTISCSGSSSNIGKNYVSWYQHFPGTAPKLLIYDNDERPSGIPDRFSGSKSGTSATLGITGLQTGDEADYYCGAWDISLSAWVFGGGTKLTVL
B11: OIG11 (antibody, V domains shown)
VH: QVQLVQSGGGLLQPGGSLRLSCAASGFTFSNYDMHWVRQPPGKGLEWVSSIDTAGDTYYEGSAKGRFTISRDNSANTLYLQMNSLTTEDTAVYYCAKDRIWFGDFDYWGQGTLVTVSS
VL: B7 VL with S2A, N55K, A94T, G95S, N97S, N98T, P99L, V108L
B12: OIG12 (antibody, V domains shown)
VH: QVQLVQSGGGLVQPGGSLRLSCAASGFTFSSYEMNWVRQAPGKGLEWVSYISSSGSTIYYADSVKGRFTISRDNAKNSLYLQMNSLRAEDTAVYYCAREGQLLWAPFDYWGQGTLVTVSS
VL: QAVLTQPPSVSGAPGQRVTISCTGSNSNIGAGYDVHWYQQLPGTAPKLLIYGNTNRPSGVPDRFSGSKSGTSASLAITGLQAEDEADYYCQSYDSRLSAVFGGGTKVTVL
B13: OIG2 (antibody, V domains shown)
VH: B7 VH with L111M
VL: QSALTQPASVSGSPGQSITISCTGTSSDVGGYNYVSWYQQHPGKAPKLMIYDVSKRPSGVSNRFSGSKSGNTASLTISGLQAEDEADYYCSSYTSSSTPHYVFGTGTKVTVL
B14: OIH10 (antibody, V domains shown)
VH: EVQLVESGGGLVQPGGSLRLSCAASGFTGSNNYMSWVRQAPGKGLEWVSIIYSGGNAYYADSVKGRFTISRDNSKNILYFQMNSLRVEDTAVYYCAEGYGGVDYWGQGTLVTVSS
VL: QSVVTQPPSVSAAPGQKVTISCSGSSSNIGSNSVSWFQHLPGTAPKLLIYDNNQRPSNIPDRFSGSKSGASATLGITGLQTGDEADYYCGTWDHRLNTYVFGTGTKVTVL
B15: OIH3 (antibody, V domains shown)
VH: QVQLVQSGGGLVQPGGSLRLSCAASGFTVSSNHMAWVRQAPGKGLEWVSLIYNGDSTYYPDSVKGRFTISRDNSKNALYLQMNSLRAEDTAVYYCARDWGYDTADWGQGTLVTVSS
VL: QPVLTQPASVSGSPGQSIAISCSGTSSDIGTYDSVSWYQQHPGKAPKVIIYEVDKRPSGVPDRFSGSKSGNTASLTVSGLQAEDEADYYCSSYAGSNNFVFGTGTKLTVL
B16: OIH5 (antibody, V domains shown)
VH: B7 VH
VL: QSVLTQPPSASGTPGQRVTISCSGSNSNIGTNTVNWYQQVPGTAPKLLIHGNDQRPSGVPDRFSGSKSDTSASLAITGLQSDDDADYYCSAWDDSLNADVFGGGTKLTVL
B17: OIA10 (antibody, V domains shown)
VH: QVQLVQSGAEVKKPGASVKVSCKASGYTFTSYYMHWVRQAPGQGLEWMGIINPSGGSTSYAQKFQGRVTMTRDTSTSTVYMELSSLRAEDMAVYYCAREGLPDAFDIWGQGTMVTVSS
VL: QAGLTQPASVSGSPGQSITLSCTGTSSDVGGYNYVTWFQQHPGKAPKLMIYDVSKRPSGASNRFSGSKSGNTASLTISGLQAEDEADYYCSSYTSSGTYVFGTGTKLTVL

Each binder was assayed against OprF (Pseudomonas aeruginosa) (UniProt P13794) (assay: ELISA, Example 1 (FIGS. 2 and 3)).

Binder | binding
B1 | binds
B2 | binds
B3 | binds
B4 | binds

These binders were tested against OprI (Pseudomonas aeruginosa) (UniProt P11221) (assay: ELISA, Example 1 (FIG. 1)).

Binder | binding
B5 | binds
B6 | binds
B7 | binds
B8 | binds
B9 | binds
B10 | binds
B11 | binds
B12 | binds
B13 | binds
B14 | binds
B15 | binds
B16 | binds
B17 | binds
